Laboratory results from article PMC10667816, “A Cell‐Penetrant Peptide Disrupting the Transcription Factor CP2c Complexes Induces Cancer‐Specific Synthetic Lethality” (Advanced Science, 2023).
Residue numbers refer to the chain shown, from its start. The exact form of at least one protein or probe is not confirmed. For some assays here: A weaker result is weaker than the reference pair of the same experiment. For some assays here: Protein sequences can lack the tags named with them. For some assays here: Where cells or extracts were used, other partners may take part. For some assays here: At least one verdict rests on a figure or table, not on a statement of the authors.

The chains behind the UniProt entries cited, without tags or fusion partners. Residues count along the entry.
UniProt O88907, 2-651: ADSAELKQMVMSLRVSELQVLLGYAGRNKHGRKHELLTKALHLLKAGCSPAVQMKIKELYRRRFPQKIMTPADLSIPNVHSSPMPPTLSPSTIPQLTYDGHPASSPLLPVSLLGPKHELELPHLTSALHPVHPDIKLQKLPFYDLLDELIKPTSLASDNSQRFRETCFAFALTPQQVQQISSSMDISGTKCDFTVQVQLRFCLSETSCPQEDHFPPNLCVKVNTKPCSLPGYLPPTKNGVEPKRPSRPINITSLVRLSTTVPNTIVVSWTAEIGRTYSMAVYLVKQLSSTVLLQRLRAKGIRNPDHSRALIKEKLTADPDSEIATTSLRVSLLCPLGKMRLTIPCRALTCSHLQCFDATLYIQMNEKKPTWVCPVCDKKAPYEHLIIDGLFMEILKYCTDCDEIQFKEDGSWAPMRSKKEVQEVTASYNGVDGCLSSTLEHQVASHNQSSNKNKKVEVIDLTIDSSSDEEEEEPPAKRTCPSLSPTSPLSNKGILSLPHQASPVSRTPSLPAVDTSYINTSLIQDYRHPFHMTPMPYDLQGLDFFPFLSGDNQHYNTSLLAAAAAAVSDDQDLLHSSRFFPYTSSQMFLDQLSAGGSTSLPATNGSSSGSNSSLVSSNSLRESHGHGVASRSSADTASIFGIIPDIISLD

How the values were obtained:
CP2c (C4 or CBP complex) [1] = molecular target: T1, CP2c (C4 or CBP complex) (UniProt Q9ERA0); assay: DNA-IP; DNA pull-down; settings: [C4], DNA-IP: 4% glycerol, 10 mM Tris-HCl pH 7.4, 1 mM DTT, 1 mM EDTA, 0.1% NP-40, room temperature 15 min (then 0-3 uM peptide 15 min), wash 50 mM Tris-HCl pH 7.4, protein in a lysate after overexpression
T1 sequence (looked up, limits assumed): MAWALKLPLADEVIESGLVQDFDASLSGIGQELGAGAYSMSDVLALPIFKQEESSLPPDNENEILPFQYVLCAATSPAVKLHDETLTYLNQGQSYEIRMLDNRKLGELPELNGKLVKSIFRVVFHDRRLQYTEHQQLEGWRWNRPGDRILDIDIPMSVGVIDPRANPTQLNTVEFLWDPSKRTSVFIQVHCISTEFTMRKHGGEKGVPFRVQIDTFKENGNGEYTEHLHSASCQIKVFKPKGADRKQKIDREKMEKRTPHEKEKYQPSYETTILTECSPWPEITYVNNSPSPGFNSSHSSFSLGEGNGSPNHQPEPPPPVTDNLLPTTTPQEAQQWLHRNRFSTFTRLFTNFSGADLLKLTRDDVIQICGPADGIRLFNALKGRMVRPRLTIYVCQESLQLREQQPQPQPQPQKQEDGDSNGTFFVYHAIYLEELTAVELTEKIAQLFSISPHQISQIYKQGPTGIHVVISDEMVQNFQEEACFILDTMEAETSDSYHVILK

[2] = tested on: CP2c (C4 or CBP complex) + CP2b + PIAS1; assay: DNA-IP; DNA pull-down; settings: DNA-IP: 4% glycerol, 10 mM Tris-HCl pH 7.4, 1 mM DTT, 1 mM EDTA, 0.1% NP-40, room temperature 15 min (then 0-3 uM peptide 15 min), wash 50 mM Tris-HCl pH 7.4, protein in a lysate after overexpression
CP2c (C4 or CBP complex) [3] = molecular target: T1, CP2c (C4 or CBP complex); assay: DNA-IP; settings: [C4], Pep #5; DNA-IP: 4% glycerol, 10 mM Tris-HCl pH 7.4, 1 mM DTT, 1 mM EDTA, 0.1% NP-40, room temperature 15 min (then 0-3 uM peptide 15 min); wash 50 mM Tris-HCl pH 7.4; protein in a lysate after overexpression
GST-CP2c R341A (mouse) = molecular target: T2, GST-CP2c R341A (mouse) (UniProt Q9ERA0); assay: DNA-IP; settings: DNA-IP: 4% glycerol, 10 mM Tris-HCl pH 7.4, 1 mM DTT, 1 mM EDTA, 0.1% NP-40, room temperature 15 min (then 0-3 uM peptide 15 min); wash 50 mM Tris-HCl pH 7.4; recombinant protein; protein details: N-GST
T2 sequence (looked up, limits assumed): T1 sequence (looked up, limits assumed) with R341A

PIAS1 (nuclear extract) = PIAS1 (nuclear extract) (UniProt O88907); assay: DNA-IP; settings: DNA-IP: 4% glycerol, 10 mM Tris-HCl pH 7.4, 1 mM DTT, 1 mM EDTA, 0.1% NP-40, room temperature 15 min (then 0-3 uM peptide 15 min), wash 50 mM Tris-HCl pH 7.4, protein in an extract
GST-CP2c R347A (mouse) = molecular target: T3, GST-CP2c R347A (mouse) (UniProt Q9ERA0); assay: DNA-IP; settings: DNA-IP: 4% glycerol, 10 mM Tris-HCl pH 7.4, 1 mM DTT, 1 mM EDTA, 0.1% NP-40, room temperature 15 min (then 0-3 uM peptide 15 min); wash 50 mM Tris-HCl pH 7.4; recombinant protein; protein details: N-GST
T3 sequence (looked up, limits assumed): T1 sequence (looked up, limits assumed) with R347A

[4] = molecular target: T4, GST-CP2c wildtype (mouse (mCP2c primers)) (UniProt Q9ERA0); assay: DNA-IP; settings: DNA-IP: 4% glycerol, 10 mM Tris-HCl pH 7.4, 1 mM DTT, 1 mM EDTA, 0.1% NP-40, room temperature 15 min (then 0-3 uM peptide 15 min); wash 50 mM Tris-HCl pH 7.4; recombinant protein; protein details: N-GST
T4 sequence (looked up, limits assumed): T1 sequence (looked up, limits assumed)

[5] = tested on: CP2c (C4 or CBP complex) + CP2b + PIAS1; assay: DNA-IP; settings: Pep #5; DNA-IP: 4% glycerol, 10 mM Tris-HCl pH 7.4, 1 mM DTT, 1 mM EDTA, 0.1% NP-40, room temperature 15 min (then 0-3 uM peptide 15 min); wash 50 mM Tris-HCl pH 7.4; protein in a lysate after overexpression
GST-CP2c E332A (mouse) = molecular target: T5, GST-CP2c E332A (mouse) (UniProt Q9ERA0); assay: DNA-IP; settings: DNA-IP: 4% glycerol, 10 mM Tris-HCl pH 7.4, 1 mM DTT, 1 mM EDTA, 0.1% NP-40, room temperature 15 min (then 0-3 uM peptide 15 min); wash 50 mM Tris-HCl pH 7.4; recombinant protein; protein details: N-GST
T5 sequence (looked up, limits assumed): T1 sequence (looked up, limits assumed) with E332A

GST-CP2c R339A (mouse) = molecular target: T6, GST-CP2c R339A (mouse) (UniProt Q9ERA0); assay: DNA-IP; settings: DNA-IP: 4% glycerol, 10 mM Tris-HCl pH 7.4, 1 mM DTT, 1 mM EDTA, 0.1% NP-40, room temperature 15 min (then 0-3 uM peptide 15 min); wash 50 mM Tris-HCl pH 7.4; recombinant protein; protein details: N-GST
T6 sequence (looked up, limits assumed): T1 sequence (looked up, limits assumed) with R339A

CP2b (nuclear extract) = molecular target: T7, CP2b (nuclear extract) (UniProt Q811S7); assay: DNA-IP; settings: DNA-IP: 4% glycerol, 10 mM Tris-HCl pH 7.4, 1 mM DTT, 1 mM EDTA, 0.1% NP-40, room temperature 15 min (then 0-3 uM peptide 15 min), wash 50 mM Tris-HCl pH 7.4, protein in an extract
T7 sequence (looked up, limits assumed): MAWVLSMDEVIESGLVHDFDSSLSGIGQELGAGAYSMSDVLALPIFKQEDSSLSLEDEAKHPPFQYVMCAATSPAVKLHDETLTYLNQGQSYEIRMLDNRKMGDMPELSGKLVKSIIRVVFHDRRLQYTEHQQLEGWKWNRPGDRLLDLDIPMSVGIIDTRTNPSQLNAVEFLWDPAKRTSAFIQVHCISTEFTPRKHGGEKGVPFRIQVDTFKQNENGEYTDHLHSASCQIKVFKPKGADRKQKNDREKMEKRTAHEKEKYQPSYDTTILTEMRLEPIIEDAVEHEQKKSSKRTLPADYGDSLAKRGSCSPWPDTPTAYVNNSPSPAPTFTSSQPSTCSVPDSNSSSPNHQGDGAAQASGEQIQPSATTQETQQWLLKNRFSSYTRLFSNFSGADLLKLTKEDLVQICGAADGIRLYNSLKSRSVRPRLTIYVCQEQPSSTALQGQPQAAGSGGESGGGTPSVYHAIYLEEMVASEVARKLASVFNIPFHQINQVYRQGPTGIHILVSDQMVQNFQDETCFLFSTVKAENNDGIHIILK

CP2c (nuclear extract) = molecular target: T8, CP2c (nuclear extract) (UniProt Q9ERA0); assay: DNA-IP; settings: DNA-IP: 4% glycerol, 10 mM Tris-HCl pH 7.4, 1 mM DTT, 1 mM EDTA, 0.1% NP-40, room temperature 15 min (then 0-3 uM peptide 15 min), wash 50 mM Tris-HCl pH 7.4, protein in an extract
T8 sequence (looked up, limits assumed): T1 sequence (looked up, limits assumed)

GATCCCAAGTTTTACTCGGTAGAGCAAGCACAAACCAGG / GATCCCTGGTTTGTGCTTGCTCTACCGAGTAAAACTTGG [wildtype Hba-a2 promoter probe]
binding result (CP2c (C4 or CBP complex) [1]; Pep #5-2): binds more weakly | binding result (CP2c (C4 or CBP complex) [1]; no peptide): binds | binding result ([2]; Pep #5-2): binds more weakly | binding result ([2]; no peptide): binds | binding result (CP2c (C4 or CBP complex) [3]): binds more weakly | binding result (GST-CP2c R341A (mouse)): binds more weakly | binding result (PIAS1 (nuclear extract); Pep #5-2): binds more weakly | binding result (PIAS1 (nuclear extract); no peptide): binds | binding result (GST-CP2c R347A (mouse)): binds more weakly | binding result [4]: binds | binding result [5]: binds more weakly | binding result (GST-CP2c E332A (mouse)): binds more weakly | binding result (GST-CP2c R339A (mouse)): binds more weakly | binding result (CP2b (nuclear extract); Pep #5-2): binds more weakly | binding result (CP2b (nuclear extract); no peptide): binds | binding result (CP2c (nuclear extract); Pep #5-2): binds more weakly | binding result (CP2c (nuclear extract); no peptide): binds
